These are yes or no findings as the source states them, for the method shown. Binding seen in cells or lysates may run through a third protein. These calls come from enrichment with a bait or labelling near it, and not all partners need be listed.
molecular target: Androgen receptor splice variant 7 (AR-V7) (human (endogenous in 22Rv1)) (UniProt P10275); test: affinity purification with mass spectrometry; co-IP with AR-V7 antibody beads from 22Rv1 cells, SDS-PAGE, silver staining, biological mass spectrometry

Protein sequences, listed by entry. Tags and fused reporters are not part of them. Lines headed by an entry give the natural chain unless they say otherwise; changes in a name come on top. Chains listed by the source or under a name are the forms on record and can include a tag or linker. Residues count along the entry.
Androgen receptor splice variant 7 (AR-V7) (human (endogenous in 22Rv1)) (P10275, form named): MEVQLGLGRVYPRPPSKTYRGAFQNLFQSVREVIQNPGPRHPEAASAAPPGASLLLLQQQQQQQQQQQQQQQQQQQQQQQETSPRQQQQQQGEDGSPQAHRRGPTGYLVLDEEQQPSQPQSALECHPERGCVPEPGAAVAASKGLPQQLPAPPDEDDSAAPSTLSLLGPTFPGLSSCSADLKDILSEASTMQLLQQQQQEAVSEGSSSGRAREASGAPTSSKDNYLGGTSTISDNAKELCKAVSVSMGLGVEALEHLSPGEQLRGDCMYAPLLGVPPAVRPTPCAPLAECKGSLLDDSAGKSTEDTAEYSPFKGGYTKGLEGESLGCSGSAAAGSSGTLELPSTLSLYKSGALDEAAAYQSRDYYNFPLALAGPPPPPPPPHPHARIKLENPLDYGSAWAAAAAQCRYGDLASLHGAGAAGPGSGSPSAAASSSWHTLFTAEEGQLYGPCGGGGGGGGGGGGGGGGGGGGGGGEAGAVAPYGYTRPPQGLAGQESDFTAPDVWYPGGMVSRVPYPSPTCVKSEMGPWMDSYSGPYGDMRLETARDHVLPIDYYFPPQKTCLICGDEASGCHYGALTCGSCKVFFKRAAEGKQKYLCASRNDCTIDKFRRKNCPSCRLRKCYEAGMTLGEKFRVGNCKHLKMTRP
UniProt P11142: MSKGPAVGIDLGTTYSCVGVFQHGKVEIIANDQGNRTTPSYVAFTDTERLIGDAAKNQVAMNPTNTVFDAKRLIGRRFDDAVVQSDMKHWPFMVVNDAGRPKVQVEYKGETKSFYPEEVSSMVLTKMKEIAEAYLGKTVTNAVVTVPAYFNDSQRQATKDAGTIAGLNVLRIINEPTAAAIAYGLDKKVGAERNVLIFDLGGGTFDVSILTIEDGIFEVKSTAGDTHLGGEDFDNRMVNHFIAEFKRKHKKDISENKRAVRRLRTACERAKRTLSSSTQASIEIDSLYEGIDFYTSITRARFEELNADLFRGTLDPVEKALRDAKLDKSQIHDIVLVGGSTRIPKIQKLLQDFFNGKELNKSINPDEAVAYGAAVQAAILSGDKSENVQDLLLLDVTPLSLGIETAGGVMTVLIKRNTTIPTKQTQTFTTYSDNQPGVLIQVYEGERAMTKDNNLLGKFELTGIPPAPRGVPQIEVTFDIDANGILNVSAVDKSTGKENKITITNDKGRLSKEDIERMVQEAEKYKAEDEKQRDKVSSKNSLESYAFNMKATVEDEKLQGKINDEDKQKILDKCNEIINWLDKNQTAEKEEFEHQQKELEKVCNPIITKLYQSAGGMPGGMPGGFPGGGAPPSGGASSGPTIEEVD
UniProt P11021, residues 19-654: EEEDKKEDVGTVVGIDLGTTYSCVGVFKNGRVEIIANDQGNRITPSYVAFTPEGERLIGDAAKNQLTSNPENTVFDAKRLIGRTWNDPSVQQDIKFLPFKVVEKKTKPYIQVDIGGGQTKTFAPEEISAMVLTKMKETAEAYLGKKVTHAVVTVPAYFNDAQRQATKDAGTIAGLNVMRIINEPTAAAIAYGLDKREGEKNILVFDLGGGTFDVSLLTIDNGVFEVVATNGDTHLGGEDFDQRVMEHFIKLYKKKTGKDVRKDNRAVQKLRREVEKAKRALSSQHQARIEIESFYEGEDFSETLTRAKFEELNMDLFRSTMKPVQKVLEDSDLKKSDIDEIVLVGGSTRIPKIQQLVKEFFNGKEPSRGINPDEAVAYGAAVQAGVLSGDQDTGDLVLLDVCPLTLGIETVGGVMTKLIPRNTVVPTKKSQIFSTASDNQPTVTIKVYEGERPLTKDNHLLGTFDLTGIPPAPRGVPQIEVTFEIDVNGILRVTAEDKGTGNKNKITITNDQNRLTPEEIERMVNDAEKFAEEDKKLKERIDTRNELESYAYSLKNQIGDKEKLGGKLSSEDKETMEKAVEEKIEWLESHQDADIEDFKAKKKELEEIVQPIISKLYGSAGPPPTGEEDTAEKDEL
UniProt P08238: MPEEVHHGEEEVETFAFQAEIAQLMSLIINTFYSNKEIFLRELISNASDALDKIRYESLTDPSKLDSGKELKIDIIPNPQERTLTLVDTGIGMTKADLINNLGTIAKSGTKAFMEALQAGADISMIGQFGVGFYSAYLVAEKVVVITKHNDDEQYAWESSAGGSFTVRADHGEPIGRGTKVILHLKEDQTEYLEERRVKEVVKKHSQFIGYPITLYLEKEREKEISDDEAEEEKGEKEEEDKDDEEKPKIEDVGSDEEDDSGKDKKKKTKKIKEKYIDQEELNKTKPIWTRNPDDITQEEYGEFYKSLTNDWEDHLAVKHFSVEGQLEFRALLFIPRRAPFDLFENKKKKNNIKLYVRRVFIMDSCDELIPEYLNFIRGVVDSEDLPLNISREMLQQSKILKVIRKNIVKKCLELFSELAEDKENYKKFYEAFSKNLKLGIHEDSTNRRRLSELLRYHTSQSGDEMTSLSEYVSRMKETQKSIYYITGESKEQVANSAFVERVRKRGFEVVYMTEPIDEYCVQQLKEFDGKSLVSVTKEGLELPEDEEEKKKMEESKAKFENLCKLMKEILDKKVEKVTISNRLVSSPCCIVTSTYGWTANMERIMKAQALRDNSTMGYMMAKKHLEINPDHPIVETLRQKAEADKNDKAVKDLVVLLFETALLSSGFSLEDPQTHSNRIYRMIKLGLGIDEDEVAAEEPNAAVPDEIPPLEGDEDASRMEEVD

binding, binds:
HS90A (Hsp90-alpha) (from UniProt P07900 1-732)
HSP7C (heat shock cognate 71 kDa protein) (from UniProt P11142 1-646)
glucose-regulated protein 78kD (GRP78, also known as BiP) (from UniProt P11021 19-654)
HS90B (Hsp90-beta) (from UniProt P08238 1-724)

From publication PMC7069092
